This passage reports binding results from publication doi:10.1101/2019.12.31.891556.

Protein sequences, listed by entry. Tags and fused reporters are not part of them.
UniProt Q8CHK4: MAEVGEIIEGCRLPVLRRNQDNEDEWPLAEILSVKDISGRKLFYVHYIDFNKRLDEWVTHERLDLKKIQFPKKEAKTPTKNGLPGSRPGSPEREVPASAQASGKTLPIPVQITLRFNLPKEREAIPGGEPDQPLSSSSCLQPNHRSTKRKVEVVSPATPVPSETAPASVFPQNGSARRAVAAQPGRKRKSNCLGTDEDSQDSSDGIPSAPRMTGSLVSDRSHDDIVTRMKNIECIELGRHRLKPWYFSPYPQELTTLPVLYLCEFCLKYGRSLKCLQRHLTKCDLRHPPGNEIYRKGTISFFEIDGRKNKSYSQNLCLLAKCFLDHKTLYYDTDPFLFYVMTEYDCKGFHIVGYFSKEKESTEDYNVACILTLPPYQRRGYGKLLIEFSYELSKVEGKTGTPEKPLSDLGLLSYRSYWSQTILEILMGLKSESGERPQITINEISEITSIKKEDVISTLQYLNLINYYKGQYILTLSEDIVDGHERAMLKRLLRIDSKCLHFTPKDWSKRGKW
UniProt Q8R4B8: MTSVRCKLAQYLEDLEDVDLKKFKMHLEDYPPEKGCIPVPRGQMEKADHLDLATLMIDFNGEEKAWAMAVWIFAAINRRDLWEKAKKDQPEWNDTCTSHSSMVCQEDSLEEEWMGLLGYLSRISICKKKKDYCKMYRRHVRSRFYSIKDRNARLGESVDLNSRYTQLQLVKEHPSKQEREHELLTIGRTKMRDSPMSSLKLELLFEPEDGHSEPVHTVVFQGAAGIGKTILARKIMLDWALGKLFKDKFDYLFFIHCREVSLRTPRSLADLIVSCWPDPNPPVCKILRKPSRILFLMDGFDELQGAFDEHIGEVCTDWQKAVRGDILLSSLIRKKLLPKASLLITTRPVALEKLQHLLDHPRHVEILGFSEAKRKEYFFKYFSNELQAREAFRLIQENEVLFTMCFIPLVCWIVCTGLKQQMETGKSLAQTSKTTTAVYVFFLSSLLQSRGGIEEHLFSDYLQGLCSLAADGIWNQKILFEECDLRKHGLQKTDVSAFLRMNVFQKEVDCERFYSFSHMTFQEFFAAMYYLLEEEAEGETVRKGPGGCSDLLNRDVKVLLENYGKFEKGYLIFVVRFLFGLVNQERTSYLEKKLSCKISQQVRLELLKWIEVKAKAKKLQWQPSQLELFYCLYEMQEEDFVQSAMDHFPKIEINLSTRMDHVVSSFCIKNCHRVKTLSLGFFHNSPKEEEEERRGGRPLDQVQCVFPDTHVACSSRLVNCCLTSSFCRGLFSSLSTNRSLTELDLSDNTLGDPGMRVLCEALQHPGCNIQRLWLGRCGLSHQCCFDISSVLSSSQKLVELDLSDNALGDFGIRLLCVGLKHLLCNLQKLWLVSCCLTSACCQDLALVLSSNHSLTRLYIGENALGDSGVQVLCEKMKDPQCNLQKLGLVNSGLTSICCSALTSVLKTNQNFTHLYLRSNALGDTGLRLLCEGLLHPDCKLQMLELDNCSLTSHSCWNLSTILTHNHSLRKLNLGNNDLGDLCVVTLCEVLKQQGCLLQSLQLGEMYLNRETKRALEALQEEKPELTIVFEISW

Results are given in words; binding and its absence hold for the method and conditions named. For some of these results: Binding seen in cells or lysates may run through a third protein. Some binding calls cover weakened binding; strength is not graded here. For some of these results: Where a sequence is shown, tags or fusion partners need not be part of it.

Assay [1] concerns the target endogenous KAT5 (mouse (endogenous in peritoneal macrophages)) (UniProt Q8CHK4). Kind of assay: co-IP.
The target of another assay is Flag-tagged KAT5 (mouse) (UniProt Q8CHK4). Kind of assay: co-IP.
Assay [2] deals with Recombinant murine NLRP3-GST (mouse) (UniProt Q8R4B8). Kind of assay: pull-down.

In the case of “endogenous NLRP3 (from UniProt Q8R4B8 1-1033)”, in assay [1], the binding result was “binds”.
For “Myc-tagged NLRP3 (from UniProt Q8R4B8 1-1033)”, the binding entry with Flag-tagged KAT5 (mouse) was “binds”.
Consider “Recombinant murine KAT5-his (from UniProt Q8CHK4 1-513) (enzyme)”, for which the binding result in assay [2] was “binds”.

B1: Myc-tagged caspase-1 (enzyme, UniProt P29452 1-402)
chain: MADKILRAKRKQFINSVSIGTINGLLDELLEKRVLNQEEMDKIKLANITAMDKARDLCDHVSKKGPQASQIFITYICNEDCYLAGILELQSAPSAETFVATEDSKGGHPSSSETKEEQNKEDGTFPGLTGTLKFCPLEKAQKLWKENPSEIYPIMNTTTRTRLALIICNTEFQHLSPRVGAQVDLREMKLLLEDLGYTVKVKENLTALEMVKEVKEFAACPEHKTSDSTFLVFMSHGIQEGICGTTYSNEVSDILKVDTIFQMMNTLKCPSLKDKPKVIIIQACRGEKQGVVLLKDSVRDSEEDFLTDAIFEDDGIKKAHIEKDFIAFCSSTPDNVSWRHPVRGSLFIESLIKHMKEYAWSCDLEDIFRKVRFSFEQPEFRLQMPTADRVTLTKRFYLFPGH
As to B1, the binding result with Flag-tagged KAT5 (mouse) is listed as “no binding”.
